The record followed here is patent US6235502.

Construct, isoform or probe ends are uncertain for at least one entry.

The data set has as its system Sequenase 2.0 (modified T7 DNA polymerase). Briefly: binding assay. Particulars: rolling circle dNTP incorporation on DE81 filters; 10 mM Mg acetate, 50 mM K acetate, pH 7.9, 37 C, with E. coli SSB; purified recombinant protein; protein details: United States Biochemical; folded or branched DNA.

With “TCTGTTTATAGGGCCTCTTCGCTATTACGCCAGC [M13 (+) strand ssDNA circle singly primed with F4]”, the binding result was “binds”.
